Reference: patent US6635651B2, “Inhibitors of thrombin induced platelet aggregation” (Parker Hughes Institute, priority 1999, dated 2003)
At least one structure is not confirmed: it was looked up by name or label, or the drawing left a doubt.

System: thrombin induced platelet aggregation
Test: Thrombin induced platelet aggregation (Chronolog aggregometer)
Assay type: cell-based
Details: 100 μM, 0.1 U/ml thrombin
Procedure: Platelets treated with 100 μM WHI-P131 or the parent compound, WHI-P258 (negative control), were stimulated with 0.1 U/ml thrombin or 10 μg/ml collagen. WHI-P131 is described above, WHI-P258 is an unsubstituted quinazoline and structurally shown below.
Platelet aggregation with respect to control was monitored in a Chronolog Model 560 Dual Chamber Platelet Aggregometer. […] WHI-P258 had no effect on the thrombin response (FIG. 1C).
Platelets treated with varying concentrations of WHI-P131 or WHI-P258 (negative control) were stimulated with 0.1 U/ml thrombin. Platelet aggregation with respect to control was monitored in a Chronolog Model 560 Dual Chamber Platelet Aggregometer. […] The results are charted in FIG. 2.

COc1cc2ncnc(Nc3ccccc3)c2cc1OC [WHI-P258, 4-(phenyl)-amino-6,7-dimethoxyquinazoline]
effect on thrombin induced platelet aggregation: reduced
